# According to the supplement of paper PMC7666118:
# Chains of the proteins cited; added tags and fusions are not shown. Lines headed by an entry give the natural chain unless they say otherwise; changes in a name come on top.
# UniProt Q9UDX5: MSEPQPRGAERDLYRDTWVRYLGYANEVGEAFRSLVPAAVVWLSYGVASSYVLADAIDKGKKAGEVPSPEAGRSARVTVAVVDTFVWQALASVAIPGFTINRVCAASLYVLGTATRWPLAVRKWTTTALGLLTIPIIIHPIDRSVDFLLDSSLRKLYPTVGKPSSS
# UniProt O94776: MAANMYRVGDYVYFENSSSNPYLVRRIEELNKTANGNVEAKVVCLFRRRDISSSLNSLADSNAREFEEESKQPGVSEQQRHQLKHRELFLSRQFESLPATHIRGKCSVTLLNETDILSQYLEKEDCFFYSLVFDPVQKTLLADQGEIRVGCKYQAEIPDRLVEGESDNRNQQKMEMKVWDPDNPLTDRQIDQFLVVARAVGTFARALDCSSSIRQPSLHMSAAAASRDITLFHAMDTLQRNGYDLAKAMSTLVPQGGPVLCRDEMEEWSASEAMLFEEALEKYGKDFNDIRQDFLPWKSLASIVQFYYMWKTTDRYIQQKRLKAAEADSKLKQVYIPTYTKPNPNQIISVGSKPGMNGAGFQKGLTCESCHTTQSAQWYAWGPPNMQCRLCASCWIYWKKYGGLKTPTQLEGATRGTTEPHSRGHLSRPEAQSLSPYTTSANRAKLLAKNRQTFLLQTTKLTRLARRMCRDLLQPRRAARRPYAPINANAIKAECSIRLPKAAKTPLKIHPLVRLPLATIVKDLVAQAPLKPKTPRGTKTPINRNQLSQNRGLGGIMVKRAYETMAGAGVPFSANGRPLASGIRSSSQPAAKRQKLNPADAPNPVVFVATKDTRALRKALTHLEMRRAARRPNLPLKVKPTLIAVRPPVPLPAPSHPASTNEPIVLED
# UniProt Q13330: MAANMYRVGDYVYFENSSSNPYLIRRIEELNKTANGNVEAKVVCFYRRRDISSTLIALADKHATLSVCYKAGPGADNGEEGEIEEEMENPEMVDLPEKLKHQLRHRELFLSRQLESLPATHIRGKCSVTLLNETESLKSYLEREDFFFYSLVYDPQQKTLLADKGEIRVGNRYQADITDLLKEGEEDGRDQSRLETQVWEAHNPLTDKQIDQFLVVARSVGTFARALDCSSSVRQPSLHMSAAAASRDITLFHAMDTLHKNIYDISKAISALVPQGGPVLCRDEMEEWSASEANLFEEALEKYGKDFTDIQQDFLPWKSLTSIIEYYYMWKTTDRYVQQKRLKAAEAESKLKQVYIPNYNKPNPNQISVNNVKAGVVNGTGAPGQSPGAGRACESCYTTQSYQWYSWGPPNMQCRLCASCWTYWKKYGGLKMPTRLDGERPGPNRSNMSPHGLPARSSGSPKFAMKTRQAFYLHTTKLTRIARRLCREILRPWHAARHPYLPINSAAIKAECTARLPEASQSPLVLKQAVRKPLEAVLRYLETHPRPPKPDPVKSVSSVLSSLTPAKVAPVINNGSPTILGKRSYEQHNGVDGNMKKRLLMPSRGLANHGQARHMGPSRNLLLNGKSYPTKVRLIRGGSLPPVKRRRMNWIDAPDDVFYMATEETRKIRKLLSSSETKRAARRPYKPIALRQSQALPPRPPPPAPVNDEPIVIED
# UniProt Q9Y2X0: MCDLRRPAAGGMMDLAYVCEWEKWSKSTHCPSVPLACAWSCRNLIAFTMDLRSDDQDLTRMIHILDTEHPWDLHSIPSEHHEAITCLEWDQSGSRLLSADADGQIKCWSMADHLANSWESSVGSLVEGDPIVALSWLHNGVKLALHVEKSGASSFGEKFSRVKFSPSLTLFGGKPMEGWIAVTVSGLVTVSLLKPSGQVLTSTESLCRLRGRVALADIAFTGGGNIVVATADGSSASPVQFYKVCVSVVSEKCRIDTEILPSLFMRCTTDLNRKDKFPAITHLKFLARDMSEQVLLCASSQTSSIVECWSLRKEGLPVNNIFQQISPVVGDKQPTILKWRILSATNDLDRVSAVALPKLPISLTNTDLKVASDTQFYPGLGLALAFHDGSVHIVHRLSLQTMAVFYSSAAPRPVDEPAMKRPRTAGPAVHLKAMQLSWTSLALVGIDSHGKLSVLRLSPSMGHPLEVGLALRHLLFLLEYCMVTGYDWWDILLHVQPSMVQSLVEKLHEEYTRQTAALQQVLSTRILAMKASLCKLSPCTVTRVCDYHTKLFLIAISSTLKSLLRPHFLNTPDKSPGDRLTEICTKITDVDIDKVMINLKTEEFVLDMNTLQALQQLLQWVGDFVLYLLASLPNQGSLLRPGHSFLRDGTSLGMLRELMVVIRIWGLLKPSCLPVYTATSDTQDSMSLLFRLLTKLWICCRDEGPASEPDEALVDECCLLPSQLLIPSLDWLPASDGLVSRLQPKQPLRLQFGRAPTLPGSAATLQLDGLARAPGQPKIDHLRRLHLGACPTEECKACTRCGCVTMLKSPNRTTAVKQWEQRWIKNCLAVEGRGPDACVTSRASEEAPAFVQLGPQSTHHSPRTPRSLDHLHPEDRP
# UniProt Q9Y4U1: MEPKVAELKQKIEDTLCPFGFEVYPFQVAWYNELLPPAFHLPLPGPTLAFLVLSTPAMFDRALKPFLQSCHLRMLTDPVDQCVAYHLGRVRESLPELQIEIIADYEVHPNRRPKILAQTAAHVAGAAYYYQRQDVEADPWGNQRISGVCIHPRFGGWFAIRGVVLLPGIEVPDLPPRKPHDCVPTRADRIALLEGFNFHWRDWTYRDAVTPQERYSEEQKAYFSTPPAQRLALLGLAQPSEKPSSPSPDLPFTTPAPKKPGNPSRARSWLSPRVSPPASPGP
# UniProt O43451: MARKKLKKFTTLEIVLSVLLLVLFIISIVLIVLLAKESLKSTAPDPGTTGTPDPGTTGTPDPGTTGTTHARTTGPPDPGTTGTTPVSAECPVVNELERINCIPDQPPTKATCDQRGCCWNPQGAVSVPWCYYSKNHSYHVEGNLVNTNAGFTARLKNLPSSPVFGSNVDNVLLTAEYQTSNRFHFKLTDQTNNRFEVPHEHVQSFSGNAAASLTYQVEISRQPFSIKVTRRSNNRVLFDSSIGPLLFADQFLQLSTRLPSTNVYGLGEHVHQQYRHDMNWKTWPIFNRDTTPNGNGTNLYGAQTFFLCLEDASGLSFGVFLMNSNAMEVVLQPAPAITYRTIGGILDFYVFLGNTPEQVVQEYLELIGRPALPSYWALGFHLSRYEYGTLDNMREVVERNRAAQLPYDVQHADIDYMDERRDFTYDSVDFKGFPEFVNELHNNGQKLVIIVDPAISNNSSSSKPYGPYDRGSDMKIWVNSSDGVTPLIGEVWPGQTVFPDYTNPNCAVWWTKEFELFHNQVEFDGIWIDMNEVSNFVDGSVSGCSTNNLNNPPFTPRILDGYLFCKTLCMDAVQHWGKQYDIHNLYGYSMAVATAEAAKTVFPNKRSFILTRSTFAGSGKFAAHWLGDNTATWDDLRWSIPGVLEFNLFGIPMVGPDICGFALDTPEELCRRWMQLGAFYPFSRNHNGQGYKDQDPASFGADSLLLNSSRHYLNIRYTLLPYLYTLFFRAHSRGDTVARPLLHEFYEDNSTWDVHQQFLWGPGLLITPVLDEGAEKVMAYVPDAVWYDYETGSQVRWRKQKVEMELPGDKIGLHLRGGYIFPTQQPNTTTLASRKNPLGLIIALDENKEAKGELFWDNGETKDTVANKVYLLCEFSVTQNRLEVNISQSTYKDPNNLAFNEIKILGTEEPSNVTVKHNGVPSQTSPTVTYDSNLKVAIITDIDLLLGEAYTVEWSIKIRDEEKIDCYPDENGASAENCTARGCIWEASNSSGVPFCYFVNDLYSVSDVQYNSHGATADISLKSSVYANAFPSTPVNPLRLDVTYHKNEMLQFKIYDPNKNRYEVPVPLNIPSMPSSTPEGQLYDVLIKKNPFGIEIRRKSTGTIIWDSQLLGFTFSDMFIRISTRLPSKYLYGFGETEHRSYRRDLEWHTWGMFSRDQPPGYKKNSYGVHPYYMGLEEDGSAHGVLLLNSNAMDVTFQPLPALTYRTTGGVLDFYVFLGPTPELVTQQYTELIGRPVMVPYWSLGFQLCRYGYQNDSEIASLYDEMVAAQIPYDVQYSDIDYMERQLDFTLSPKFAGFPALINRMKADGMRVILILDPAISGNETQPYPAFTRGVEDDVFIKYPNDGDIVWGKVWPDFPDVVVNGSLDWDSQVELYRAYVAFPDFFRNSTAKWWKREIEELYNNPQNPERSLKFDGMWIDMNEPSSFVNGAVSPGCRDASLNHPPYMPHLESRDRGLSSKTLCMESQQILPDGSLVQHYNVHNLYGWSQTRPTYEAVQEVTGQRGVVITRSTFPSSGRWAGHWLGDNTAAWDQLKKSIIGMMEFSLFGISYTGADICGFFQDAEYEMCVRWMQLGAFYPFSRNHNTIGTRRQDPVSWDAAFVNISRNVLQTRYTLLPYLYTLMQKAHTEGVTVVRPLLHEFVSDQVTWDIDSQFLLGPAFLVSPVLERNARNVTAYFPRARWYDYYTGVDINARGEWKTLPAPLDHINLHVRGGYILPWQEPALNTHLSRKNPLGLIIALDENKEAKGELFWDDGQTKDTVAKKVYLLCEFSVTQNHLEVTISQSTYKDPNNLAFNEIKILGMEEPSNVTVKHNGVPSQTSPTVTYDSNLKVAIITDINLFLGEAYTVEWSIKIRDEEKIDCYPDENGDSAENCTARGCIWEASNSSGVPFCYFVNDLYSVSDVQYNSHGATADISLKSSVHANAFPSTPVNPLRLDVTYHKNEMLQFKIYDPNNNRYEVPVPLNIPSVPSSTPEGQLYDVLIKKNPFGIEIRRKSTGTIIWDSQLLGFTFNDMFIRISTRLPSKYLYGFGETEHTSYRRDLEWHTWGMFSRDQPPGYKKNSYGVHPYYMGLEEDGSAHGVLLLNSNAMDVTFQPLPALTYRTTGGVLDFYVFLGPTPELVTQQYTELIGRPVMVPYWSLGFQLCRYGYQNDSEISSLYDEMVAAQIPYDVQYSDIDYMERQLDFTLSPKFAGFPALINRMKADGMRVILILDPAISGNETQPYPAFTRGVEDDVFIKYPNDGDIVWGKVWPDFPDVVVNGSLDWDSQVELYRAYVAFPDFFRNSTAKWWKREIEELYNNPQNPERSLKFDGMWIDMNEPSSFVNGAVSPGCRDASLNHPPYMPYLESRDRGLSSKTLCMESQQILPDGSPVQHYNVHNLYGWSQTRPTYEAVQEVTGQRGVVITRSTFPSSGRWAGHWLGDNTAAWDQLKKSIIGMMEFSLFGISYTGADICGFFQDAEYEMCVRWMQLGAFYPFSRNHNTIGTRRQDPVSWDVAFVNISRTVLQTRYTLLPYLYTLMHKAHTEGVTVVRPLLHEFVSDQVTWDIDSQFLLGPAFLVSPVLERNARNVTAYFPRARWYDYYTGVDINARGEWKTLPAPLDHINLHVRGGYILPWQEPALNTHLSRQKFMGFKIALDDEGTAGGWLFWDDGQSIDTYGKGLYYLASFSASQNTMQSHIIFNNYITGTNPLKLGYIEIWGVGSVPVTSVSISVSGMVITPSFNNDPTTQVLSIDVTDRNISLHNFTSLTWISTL
# UniProt Q9HCE1: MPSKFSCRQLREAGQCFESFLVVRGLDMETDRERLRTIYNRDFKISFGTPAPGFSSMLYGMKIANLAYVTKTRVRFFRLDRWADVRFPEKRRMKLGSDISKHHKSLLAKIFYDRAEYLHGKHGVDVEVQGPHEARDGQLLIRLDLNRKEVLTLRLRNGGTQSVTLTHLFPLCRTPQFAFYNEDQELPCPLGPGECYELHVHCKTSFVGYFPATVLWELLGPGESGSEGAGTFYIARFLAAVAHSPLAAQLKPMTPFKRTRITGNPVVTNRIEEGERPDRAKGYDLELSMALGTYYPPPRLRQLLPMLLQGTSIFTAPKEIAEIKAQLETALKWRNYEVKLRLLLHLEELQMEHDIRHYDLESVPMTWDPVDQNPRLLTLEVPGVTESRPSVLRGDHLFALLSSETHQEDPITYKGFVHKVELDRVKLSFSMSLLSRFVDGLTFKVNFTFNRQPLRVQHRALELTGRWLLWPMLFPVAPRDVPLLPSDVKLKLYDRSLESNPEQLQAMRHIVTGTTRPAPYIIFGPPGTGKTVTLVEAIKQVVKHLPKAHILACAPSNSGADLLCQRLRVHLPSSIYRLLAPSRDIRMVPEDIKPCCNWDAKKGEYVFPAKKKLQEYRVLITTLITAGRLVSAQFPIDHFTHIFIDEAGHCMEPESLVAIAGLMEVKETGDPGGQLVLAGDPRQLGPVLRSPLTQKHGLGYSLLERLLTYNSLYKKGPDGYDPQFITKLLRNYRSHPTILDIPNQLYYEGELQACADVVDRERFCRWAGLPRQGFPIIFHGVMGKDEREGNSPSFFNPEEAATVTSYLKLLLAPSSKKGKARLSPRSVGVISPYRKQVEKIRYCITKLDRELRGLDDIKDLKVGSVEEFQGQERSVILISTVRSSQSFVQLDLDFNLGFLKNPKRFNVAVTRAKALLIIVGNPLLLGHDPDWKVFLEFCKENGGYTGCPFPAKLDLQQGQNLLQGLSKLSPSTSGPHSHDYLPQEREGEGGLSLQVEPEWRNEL
# This is one part of the list.
# Compound: COc1ccc(Cn2ccc3cc(C)c(C(=O)NO)cc32)cc1
# Test: dose-dependent thermal stabilisation call (2D-TPP, DLPTP, 10% FDR) (binary (1 = stabilised)); higher = stabilised by the compound
# Conditions: system: HL-60 intact cells; concentration range 0.04-10 µM
# Procedure: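 2D thermal proteome profiling in intact HL-60 cells treated with BRD-3811 (0, 0.04, 0.29, 2, 10 uM) for 90 min at 37 C, then heated 3 min at one of 12 temperatures (42-63.9 C). Soluble protein was quantified by TMT10 MS. The value is the DLPTP call of the paper: dose-dependent thermal stabilisation over all temperatures at 10% FDR (F-test of a dose-response against a flat model); one experiment, one call per tested protein.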
row,Target,dose-dependent thermal stabilisation call
1,MRPL48 (UniProt Q96GC5),inactive: 0
2,MTP18 (UniProt Q9UDX5),inactive: 0
3,MSI2 (UniProt Q96DH6),inactive: 0
4,MTHFD2 (UniProt P13995),inactive: 0
5,MRPL18 (UniProt Q9H0U6),inactive: 0
6,MPDU1 (UniProt O75352),inactive: 0
7,MTR (UniProt Q99707),inactive: 0
8,MGC3196,inactive: 0
9,MIER1 (UniProt Q8N108),inactive: 0
10,MUTED (UniProt Q8TDH9),inactive: 0
11,MORF4L2 (UniProt Q15014),inactive: 0
12,MSTO1 (UniProt Q9BUK6),inactive: 0
13,MFN2 (UniProt O95140),inactive: 0
14,MTA2 (UniProt O94776),inactive: 0
15,MRPL53 (UniProt Q96EL3),inactive: 0
16,MTA1 (UniProt Q13330),inactive: 0
17,MED16 (UniProt Q9Y2X0),inactive: 0
18,MRPL14 (UniProt Q6P1L8),inactive: 0

# A different layout for some results above:
row	Target	dose-dependent thermal stabilisation call
8	MGC3196	inactive: 0
9	MIER1 (UniProt Q8N108)	inactive: 0
10	MUTED (UniProt Q8TDH9)	inactive: 0
11	MORF4L2 (UniProt Q15014)	inactive: 0
12	MSTO1 (UniProt Q9BUK6)	inactive: 0
13	MFN2 (UniProt O95140)	inactive: 0
14	MTA2 (UniProt O94776)	inactive: 0
15	MRPL53 (UniProt Q96EL3)	inactive: 0
16	MTA1 (UniProt Q13330)	inactive: 0
17	MED16 (UniProt Q9Y2X0)	inactive: 0

# (next part)

row,Target,dose-dependent thermal stabilisation call
1,MRPL34 (UniProt Q9BQ48),inactive: 0
2,MRPL40 (UniProt Q9NQ50),inactive: 0
3,MEN1 (UniProt O00255),inactive: 0
4,MKRN2 (UniProt Q9H000),inactive: 0
5,MRC2 (UniProt Q9UBG0),inactive: 0
6,MFNG (UniProt O00587),inactive: 0
7,MGEA5 (UniProt O60502),inactive: 0
8,MYST3 (UniProt Q92794),inactive: 0
9,MTRR (UniProt Q9UBK8),inactive: 0
10,MRPS18B (UniProt Q9Y676),inactive: 0
11,MMACHC (UniProt Q9Y4U1),inactive: 0
12,METTL9 (UniProt Q9H1A3),inactive: 0
13,MOSC2 (UniProt Q969Z3),inactive: 0
14,MRPL47 (UniProt Q9HD33),inactive: 0
15,MTERFD1 (UniProt Q96E29),inactive: 0
16,MGAM (UniProt O43451),inactive: 0
17,MOV10 (UniProt Q9HCE1),inactive: 0
18,METTL1 (UniProt Q9UBP6),inactive: 0
